# Results as given in publication PMC8893665.
# These are yes or no findings as the source states them, for the method shown. Binding seen in cells or lysates may run through a third protein. Here binding means that the protein was enriched with, or labelled near, the bait; the list need not be complete. Where a sequence is shown, tags or fusion partners need not be part of it.
# Target: T1, recombinant canonical histone H2B, His-tagged (Trypanosoma cruzi) (Trypanosoma cruzi (CL Brener strain)) (UniProt B5U6T3)
# T1 sequence: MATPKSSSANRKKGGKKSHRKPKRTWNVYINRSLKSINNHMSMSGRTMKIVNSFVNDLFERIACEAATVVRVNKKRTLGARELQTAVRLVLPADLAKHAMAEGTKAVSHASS
# Experiment: affinity purification with mass spectrometry; recombinant His-tagged H2B.V or canonical H2B (bait control) held on Ni-NTA agarose (30 min, 4°C), then 1 h with basic protein extracts of T. cruzi Y strain epimastigotes or TCTs; washed three times with TBS; eluted with 50 mM sodium phosphate, 0.3 M NaCl, 290 mM imidazole; LC-MS/MS; biological triplicates; hits filtered against control samples; only the target purified
row,binding,Substance
1,binds,tousled-like kinase II (enzyme)
2,binds,high mobility group protein TDP1
3,binds,polyadenylate-binding protein (from UniProt Q27335)

# The next lines start with the substance.
row,Substance,binding
1,lupus La protein homolog,binds
2,double RNA binding domain protein 3,binds
3,retrotransposon hot spot (RHS) protein,binds
